Data taken from PubChem BioAssay AID248 (DTP/NCI, 2004).
The list does not hold the whole screen: it gathers tests that were run many times, whatever their T/C, doses with no T/C, and many T/C values between a quarter and a half above the control. Other doses and runs of a compound stand elsewhere. T/C gives the treated animals as a percentage of the vehicle group. Some doses have a count of surviving animals in place of a T/C: the source files T/C as zero there, which appears to mark a toxic dose or a test without result, not a measured value. Some doses without a T/C left all or most animals alive at the check, yet need not have been tolerated: the source hardly ever lists a survival T/C far under the control, and the zero likely stands for such cases as well. Counts of survivors are from the toxicity check (mostly the fifth day) where no day follows; animals may have died later. Schedules are NCI's codes, read here as Q, the interval in days (D) or hours (H), X, the number of doses. Some doses were run more than once; the values are given in rising order. For survival time, this PubChem deposit counts one and a half times the control or more as active, and values a quarter to a half above the control carry no call in these data; other NCI protocols may use other cut-offs. Some T/C values are followed by the survivors on the day toxicity was checked, most often the fifth; without a count, all were alive then.

System: L1210 leukemia ip in BDF1 mice, survival T/C
Assay: NCI In Vivo Anticancer Drug Screen. Data for tumor model L1210 Leukemia (intraperitoneal) in B6D2F1 (BDF1) mice
Conditions: T/C endpoint: mean survival time, higher T/C = longer survival
[1] = dose: 100.0 mg/kg/injection, schedule: Q01DX009 (ip), vehicle: Klucel (hydroxypropylcellulose) (HPC)
[2] = dose: 200.0 mg/kg/injection, schedule: Q01DX009 (ip), vehicle: Klucel (hydroxypropylcellulose) (HPC)
[3] = dose: 400.0 mg/kg/injection, schedule: Q01DX009 (ip), vehicle: Klucel (hydroxypropylcellulose) (HPC)
[4] = dose: 200.0 mg/kg/injection, schedule: Q01DX009 (ip), vehicle: saline
[5] = dose: 400.0 mg/kg/injection, schedule: Q04DX002 (ip), vehicle: Klucel (hydroxypropylcellulose) (HPC)
[6] = dose: 200.0 mg/kg/injection, schedule: Q04DX003 (ip), vehicle: saline with Tween-80
[7] = dose: 400.0 mg/kg/injection, schedule: Q04DX003 (ip), vehicle: saline with Tween-80
[8] = dose: 400.0 mg/kg/injection, schedule: Q04DX003 (ip), vehicle: Klucel (hydroxypropylcellulose) (HPC)
[9] = dose: 400.0 mg/kg/injection, schedule: Q01DX009 (ip), vehicle: saline with Tween-80
[10] = dose: 100.0 mg/kg/injection, schedule: Q01DX009 (ip), vehicle: saline with Tween-80
[11] = dose: 200.0 mg/kg/injection, schedule: Q01DX009 (ip), vehicle: saline with Tween-80
[12] = dose: 200.0 mg/kg/injection, schedule: Q04DX003 (ip), vehicle: saline
[13] = dose: 400.0 mg/kg/injection, schedule: Q04DX003 (ip), vehicle: saline
[14] = dose: 200.0 mg/kg/injection, schedule: Q01DX001 (ip), vehicle: saline
[15] = dose: 100.0 mg/kg/injection, schedule: Q04DX003 (ip), vehicle: saline

O=C(Nc1nccs1)Nc1cccc(Cl)c1Cl
survivor count [1]: 2 of 6 and 3 of 6 | survivor count [2]: 0 of 6 | survivor count [3]: 0 of 6

CCN(CC)CCO[C@H]1CC[C@@]2(C)C(=CC[C@@H]3[C@@H]2CC[C@]2(C)C(=O)CC[C@@H]32)C1
survivor count (dose: 200.0 mg/kg/injection, schedule: Q01DX001 (sc), vehicle: steroid suspending solution): 3 of 6 | survivor count (dose: 400.0 mg/kg/injection, schedule: Q01DX001 (sc), vehicle: steroid suspending solution): 1 of 6

CS(C)(C)N1C(=O)c2ccccc2C1=O
survivor count (dose: 350.0 mg/kg/injection, schedule: Q01DX009 (ip), vehicle: Klucel (hydroxypropylcellulose) (HPC)): 0 of 6

CC1(C)N=C(N)N=C(N)N1c1ccc(OCC(=O)N2CCOCC2)c(Cl)c1
survivor count [4]: 4 of 6

O=C(NO)Nc1nc(Cl)c(Cl)nc1Cl
survivor count (dose: 100.0 mg/kg/injection, schedule: Q01DX009 (ip), vehicle: water): 3 of 6 | survivor count (dose: 200.0 mg/kg/injection, schedule: Q01DX009 (ip), vehicle: water): 3 of 6 | survivor count (dose: 400.0 mg/kg/injection, schedule: Q01DX009 (ip), vehicle: water): 0 of 6

NC(CSP(=O)(O)O)=NCC12CC3CC(CC(C3)C1)C2
survivor count (dose: 40.0 mg/kg/injection, schedule: Q04DX002 (ip), vehicle: Klucel (hydroxypropylcellulose) (HPC)): 1 of 3 | survivor count (dose: 100.0 mg/kg/injection, schedule: Q04DX002 (ip), vehicle: Klucel (hydroxypropylcellulose) (HPC)): 0 of 3 | survivor count (dose: 200.0 mg/kg/injection, schedule: Q04DX002 (ip), vehicle: Klucel (hydroxypropylcellulose) (HPC)): 0 of 3 | survivor count [5]: 0 of 3

NC(=O)N/N=C1\CC2CCC1C2Cl (stereo not given)
survivor count (dose: 150.0 mg/kg/injection, schedule: Q01DX001 (ip), vehicle: saline): 2 of 6

C=CCCCCCCCCC(=O)NCCN1CCOCC1
survivor count [6]: 6 of 6 | survivor count [7]: 0 of 6

Cc1ccc(-c2cc3ccccc3[nH]2)cc1
survivor count [8]: 3 of 6

OC1(CCCc2ccccc2)CCNCC1
survivor count (dose: 300.0 mg/kg/injection, schedule: Q01DX001 (ip), vehicle: saline): 1 of 6

CC(=O)NC1CCCC2CCCCC21 (stereo not given)
survivor count [9]: 3 of 6

S=C(NCc1cccc(Cl)c1)Nc1ccccc1
survivor count [1]: 6 of 6 | survivor count [2]: 6 of 6 | survivor count [3]: 1 of 6

Clc1nc2nc(C(Cl)(Cl)Cl)[nH]c2nc1Cl
survivor count [1]: 5 of 6 | survivor count [2]: 2 of 6 | survivor count [8]: 0 of 6

CCOC(=O)NC1=C(Cl)C(=O)C(NC(=O)OCC)=C(Cl)C1=O
survivor count [8]: 5 of 6

O=S(=O)(F)c1ccc(N=C=S)cc1
survivor count [10]: 4 of 6 | survivor count [11]: 0 of 6 | survivor count [9]: 0 of 6

C(=NCCN=Cc1c[nH]c2ccccc12)c1c[nH]c2ccccc12
survivor count [9]: 4 of 6 | survivor count [7]: 4 of 6

C=C1CC(c2ccc(S(=O)(=O)N3CCCC3)cc2)OC1=O (stereo not given)
survivor count [5]: 1 of 3

c1ccc(C2=NCCCO2)cc1
survivor count [12]: 0 of 6 | survivor count [13]: 0 of 6

Nc1c(Cl)ncn2[nH]c(=O)nc12
survivor count (dose: 400.0 mg/kg/injection, schedule: Q01DX001 (ip), vehicle: carboxymethylcellulose (CMC)): 2 of 4

CCOP(OCC)SSCn1nc2ccc3ccccc3n2c1=O
survivor count [1]: 2 of 3 | survivor count [2]: 2 of 3

N#CCC(=O)c1ccccc1
survivor count (dose: 75.0 mg/kg/injection, schedule: Q04DX003 (ip), vehicle: gum acacia): 2 of 6 | survivor count (dose: 100.0 mg/kg/injection, schedule: Q04DX003 (ip), vehicle: gum acacia): 1 of 6 | survivor count (dose: 200.0 mg/kg/injection, schedule: Q04DX003 (ip), vehicle: gum acacia): 0 of 6 | survivor count (dose: 400.0 mg/kg/injection, schedule: Q04DX003 (ip), vehicle: gum acacia): 0 of 6

O=S1(=O)C2CCCC1C(Cl)CC2 (stereo not given)
survivor count (dose: 30.0 mg/kg/injection, schedule: Q01DX001 (ip), vehicle: carboxymethylcellulose (CMC)): 2 of 6 | survivor count (dose: 60.0 mg/kg/injection, schedule: Q01DX001 (ip), vehicle: carboxymethylcellulose (CMC)): 0 of 6 | survivor count (dose: 75.0 mg/kg/injection, schedule: Q01DX001 (ip), vehicle: carboxymethylcellulose (CMC)): 0 of 6 | survivor count (dose: 150.0 mg/kg/injection, schedule: Q01DX001 (ip), vehicle: carboxymethylcellulose (CMC)): 0 of 6 | survivor count (dose: 300.0 mg/kg/injection, schedule: Q01DX001 (ip), vehicle: carboxymethylcellulose (CMC)): 0 of 6

COC(=O)c1nc[nH]c1N=[N+]=[N-]
survivor count (dose: 200.0 mg/kg/injection, schedule: Q01DX001 (ip), vehicle: other): 1 of 4 | survivor count (dose: 400.0 mg/kg/injection, schedule: Q01DX001 (ip), vehicle: other): 0 of 4

Oc1ccc(Nc2ccnc3cc(Cl)ccc23)cc1CN(CCCl)CCCl
survivor count (dose: 20.0 mg/kg/injection, schedule: Q01DX001 (ip), vehicle: saline): 4 of 4 | survivor count (dose: 40.0 mg/kg/injection, schedule: Q01DX001 (ip), vehicle: saline): 1 of 4 | survivor count (dose: 80.0 mg/kg/injection, schedule: Q01DX001 (ip), vehicle: saline): 0 of 4 | survivor count (dose: 100.0 mg/kg/injection, schedule: Q01DX001 (ip), vehicle: saline): 3 of 4 | survivor count [14]: 0 of 4 | survivor count (dose: 400.0 mg/kg/injection, schedule: Q01DX001 (ip), vehicle: saline): 0 of 4

CCCP(=S)(CCC)N(C)C
survivor count [7]: 1 of 6

O=S(=O)(O)c1ccc(CCCCCCCCl)cc1
survivor count [5]: 1 of 3

CC(=O)Nc1ccc(/C=N/NC(=O)CNC(=O)Nc2cccc(Cl)c2)cc1
survivor count [10]: 3 of 3 | survivor count [11]: 3 of 3

C=C(C)C1(O)C=CC(=O)O1 (stereo not given)
survivor count (dose: 100.0 mg/kg/injection, schedule: Q01DX009 (ip), vehicle: saline): 1 of 6 | survivor count [4]: 0 of 6 | survivor count (dose: 400.0 mg/kg/injection, schedule: Q01DX009 (ip), vehicle: saline): 0 of 6

NCCCC1C(CN)C2CC1C1C3CCC(C3)C21 (stereo not given)
survivor count (dose: 50.0 mg/kg/injection, schedule: Q04DX003 (ip), vehicle: saline): 3 of 6 | survivor count [15]: 2 of 6 | survivor count [12]: 0 of 6 | survivor count [13]: 0 of 6

O=C1c2cccc3cccc(c23)C(=O)N1c1ncn[nH]1
survivor count [14]: 4 of 4

Cc1cc2nc(Cc3nc4cc(C)c(C)cc4[nH]3)[nH]c2cc1C
survivor count [15]: 6 of 6 | survivor count [13]: 3 of 6

C=CCN(C)N=Nc1ccccc1C(N)=O
T/C (dose: 59.0 mg/kg/injection, schedule: Q01DX009 (ip), vehicle: saline with Tween-80): 135 % of control | T/C (dose: 88.0 mg/kg/injection, schedule: Q01DX009 (ip), vehicle: saline with Tween-80): 148 % of control | T/C (dose: 133.0 mg/kg/injection, schedule: Q01DX009 (ip), vehicle: saline with Tween-80): 130 % of control | T/C (dose: 133.0 mg/kg/injection, schedule: Q04DX003 (ip), vehicle: saline with Tween-80): 141 % of control | T/C [6]: 149 % of control [5 of 6 alive] | survivor count [6]: 3 of 6 | T/C (dose: 268.0 mg/kg/injection, schedule: Q01DX001 (ip), vehicle: saline with Tween-80): 127 % of control | survivor count (dose: 300.0 mg/kg/injection, schedule: Q04DX003 (ip), vehicle: saline with Tween-80): 0 of 6 | survivor count (dose: 400.0 mg/kg/injection, schedule: Q01DX001 (ip), vehicle: saline with Tween-80): 3 of 6 | survivor count [7]: 0 of 6 | survivor count (dose: 600.0 mg/kg/injection, schedule: Q01DX001 (ip), vehicle: saline with Tween-80): 3 of 6
